Source: PubChem BioAssay AID652243 (Drosophila RNAi Screening Center, 2013)
The screen tested about 24,000 reagents; this is a random part of those with a known target gene and a result. In the full data, 246 (1%) are marked active. 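Plates not normalised; calls are printed but the firefly/Renilla ratio behind them is not deposited; fold cut for lowering reported inconsistently.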 The raw values are shown without normalisation. The numbers tell different reagents against one gene apart. A plus sign joins genes that one reagent is predicted to hit. Not stated in the record: the amount of reagent.

Test: 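Fly genes required for human androgen receptor driven transcription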 (primary screen)
Cells: Drosophila S2R+ cells
Knock-down reagent: long dsRNA against Drosophila genes
Duration: 72 h (48 h, then 24 h hormone)
Challenge: synthetic androgen R1881 at 10 nM for 24 h
Measurement: 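Per-well raw luminescence of the androgen-driven firefly reporter and of the Renilla control, two replicates each, without normalisation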
Scale: firefly reporter light: higher = more light from androgen-responsive reporter; Renilla control light: higher = more constitutive control signal (cell number, transfection)
Call rule: 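Hit when the log firefly-to-Renilla ratio dropped or increased by a fixed fold versus the mean of GFP or LacZ controls across duplicate plates; lowering cut given as 1.5 and as 3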
Meaning of the calls: active = hit: reporter lowered or raised; inactive = no hit

no.	Gene	reagent	firefly reporter light, replicate 1	firefly reporter light, replicate 2	Renilla control light, replicate 1	Renilla control light, replicate 2	Outcome
1	Pdzd8 (GeneID 32157)	1	1.98e5	2.28e5	3.74e6	3.93e6	active
2	Pdzd8 (GeneID 32157)	2	6.88e5	7.27e5	1.04e6	1.04e6	inactive
3	Cp7Fb (GeneID 31785)	1	2.03e5	3.42e5	3.42e6	3.67e6	inactive
4	fd96Cb (GeneID 43011)	1	1.69e5	2.33e5	2.28e6	2.10e6	inactive
5	fd96Cb (GeneID 43011)	2	3.57e5	3.48e5	4.46e5	4.31e5	inactive
6	Dna2 (GeneID 31934)	1	1.03e5	1.40e5	9.88e5	1.05e6	inactive
7	IFT20 + CG10395	1	7.88e5	7.50e5	9.29e5	7.11e5	inactive
8	IFT20 + CG10395	2	3.87e5	2.72e5	1.05e6	9.92e5	inactive
9	CG33333 (GeneID 2768672)	1	1.17e5	1.60e5	2.28e5	2.17e5	inactive

3 entries from above, ordered by “firefly reporter light, replicate 2”, lowest first:
Gene	reagent	firefly reporter light, replicate 1	firefly reporter light, replicate 2	Renilla control light, replicate 1	Renilla control light, replicate 2	Outcome
Pdzd8 (GeneID 32157)	1	1.98e5	2.28e5	3.74e6	3.93e6	active
Cp7Fb (GeneID 31785)	1	2.03e5	3.42e5	3.42e6	3.67e6	inactive
Pdzd8 (GeneID 32157)	2	6.88e5	7.27e5	1.04e6	1.04e6	inactive

Next entries follow:
no.	Gene	reagent	firefly reporter light, replicate 1	firefly reporter light, replicate 2	Renilla control light, replicate 1	Renilla control light, replicate 2	Outcome
10	CG42726 + CG42727	1	25146	25109	3.97e5	4.19e5	inactive
11	CG42726 + CG42727	2	2.60e5	2.08e5	6.93e5	6.27e5	inactive
12	CG31510 (GeneID 326146)	1	1.41e5	1.98e5	2.01e6	2.48e6	inactive
13	CG12817 (GeneID 41250)	1	61686	87460	1.80e6	2.01e6	inactive
14	CR33629 (GeneID 3772326)	1	1.20e6	1.13e6	2.21e6	2.44e6	inactive
15	CG42390 (GeneID 42600)	1	5.75e5	7.52e5	1.73e6	2.04e6	inactive
16	CG42390 (GeneID 42600)	2	8.23e5	8.34e5	2.26e6	2.31e6	inactive
17	CG15879 (GeneID 38274)	1	32839	42094	5.78e5	5.90e5	inactive
18	CG15879 (GeneID 38274)	2	4.49e5	3.95e5	7.98e5	6.54e5	inactive
19	Rev1 (GeneID 38079)	1	9.60e5	8.03e5	1.59e6	1.43e6	inactive
20	Cpr72Ea (GeneID 39814)	1	42070	31713	3.47e5	2.61e5	inactive
21	CG13008 (GeneID 32654)	1	3.09e5	3.98e5	2.03e6	2.84e6	inactive
22	CG13008 (GeneID 32654)	2	5.70e5	4.94e5	3.12e6	3.20e6	inactive
23	CG3534 (GeneID 42047)	1	1.14e5	1.25e5	2.06e6	2.38e6	inactive
24	CG3534 (GeneID 42047)	2	2.61e5	2.80e5	6.42e5	6.71e5	inactive
